{"source": "PubChem BioAssay AID540256", "about": "(National Center for Advancing Translational Sciences (NCATS), 2011)", "note": "The campaign covered roughly 300,000 compounds. About 3,700 (1.2%) were called active. This list was built around the results that the source calls inconclusive (neither active nor inactive); the mix of calls is not that of the screen. Calls come from the whole dose curve; tested in HEK293 cells. Potencies beside an inconclusive call are fits to weak or partial responses and may not hold up. Potency is the fitted concentration of half-maximal effect.", "data": [{"assay": "qHTS for Inhibitors of binding or entry into cells for Lassa Virus; note: nearly all actives have a fitted effect of over 50% in size", "conditions": "Lassa virus pseudotype entry inhibition, cell reporter; series mostly up to 37.9 µM", "values": [{"smiles": "Cc1ccc(C)c(NC(=O)c2cc(S(=O)(=O)N3CCc4ccccc4C3)ccc2F)c1", "Potency": "inactive"}, {"smiles": "Cc1cc(NC(=O)c2ccccc2)nc(C)n1", "Potency": "inconclusive: 7.94 µM [activator, single point]"}, {"smiles": "O=C(CSc1c2c(nc3ccc(Cl)cc13)CCCC2)NCc1ccco1", "Potency": "inconclusive: 29.1 µM [inhibitor, single point]"}, {"smiles": "O=C(CSc1nnc(-c2ccc(O)cc2)o1)Nc1ccccc1", "Potency": "inconclusive: 7.94 µM [inhibitor, partial curve, poor fit]"}, {"smiles": "Cc1cc(C(=O)NCC(=O)OC(C(=O)Nc2cc(C(F)(F)F)ccc2Cl)c2ccccc2)ccc1[N+](=O)[O-]", "note": "(stereo unspecified)", "Potency": "inconclusive: 22.4 µM [inhibitor, single point]"}, {"smiles": "Cc1ccccc1C(=O)NNC(=O)CCc1ccccc1", "Potency": "inactive"}, {"smiles": "Cc1cc(N2CCCCCC2)nc(-c2ccccc2O)n1", "Potency": "inconclusive: 22.4 µM [inhibitor, single point]"}, {"smiles": "COc1ccc(OCC(=O)N2CCN(c3cccc(C(F)(F)F)c3)CC2)cc1", "Potency": "inconclusive: 29.1 µM [activator, single point]"}, {"smiles": "CCn1cc(C(=O)NCCc2ccc(Cl)cc2)c(=O)c2cc(S(=O)(=O)N3CCOCC3)ccc21", "Potency": "inactive"}, {"smiles": "COc1ccc(CNC(=O)CCCCCn2c(=O)[nH]c3ccccc3c2=O)cc1", "Potency": "inactive"}, {"smiles": "COc1ccc(/C=C2\\SC(=O)N(CCC(=O)N3CCCCC3)C2=O)cc1OC", "Potency": "inconclusive: 5.62 µM [inhibitor, single point]"}, {"smiles": "O=C(c1cc[n+]([O-])cc1)N1CCc2c([nH]c3ccccc23)C1c1ccccc1Cl", "note": "(stereo unspecified)", "Potency": "inconclusive: 1.78 µM [inhibitor, partial curve, poor fit]"}, {"smiles": "CCOC(=O)c1cnc2ccccc2c1NCCO", "Potency": "inconclusive: 1.78 µM [inhibitor, partial curve, poor fit]"}, {"smiles": "Cc1ccc(CNc2ccc(-c3nc(-c4cccnc4)no3)cc2[N+](=O)[O-])cc1", "Potency": "inactive"}, {"smiles": "Cc1cc(C)n(-c2ccc(NC(=O)C3CCCCN3C(=O)c3ccoc3)cc2)n1", "note": "(stereo unspecified)", "Potency": "inactive"}, {"smiles": "O=C(CCC(=O)Nc1cccc(Cl)c1)N/N=C/c1cc([N+](=O)[O-])ccc1O", "Potency": "inconclusive: 35.5 µM [inhibitor, partial curve, poor fit]"}, {"smiles": "CCOC(=O)c1[nH]c2ccccc2c1NC(=O)c1cc(Cl)ccc1Cl", "Potency": "inconclusive: 20 µM [inhibitor, single point]"}, {"smiles": "O=C1NC(=O)N(Cc2ccccc2Cl)C(=O)/C1=C/N1CCOCC1", "Potency": "inactive"}, {"smiles": "Cc1cc(C)cc(Oc2nc3c(C)cccn3c(=O)c2/C=C(\\C#N)C(=O)NC2CCS(=O)(=O)C2)c1", "note": "(stereo unspecified)", "Potency": "inconclusive: 22.4 µM [inhibitor, single point]"}, {"smiles": "CCc1cc(C(=O)N2CCN(c3ccccc3OC)CC2)sc1C", "Potency": "inconclusive: 7.94 µM [inhibitor, partial curve, poor fit]"}, {"smiles": "Cc1ccc(S(=O)(=O)N(CC(=O)N2CCC(C)CC2)Cc2ccccc2F)cc1", "Potency": "inconclusive: 20.6 µM [inhibitor, partial curve, poor fit]"}, {"smiles": "N#Cc1ccccc1CCN1C(=O)c2ccccc2C1=O", "Potency": "inactive"}, {"smiles": "COc1cc(-c2cc(C(=O)Nc3ccc(S(=O)(=O)NCc4ccco4)cc3)c3ccccc3n2)cc(OC)c1OC", "Potency": "inconclusive: 5.8 µM [inhibitor, partial curve]"}, {"smiles": "CCOC(=O)C1CCCN(CC(=O)Nc2c(C(=O)OC)[nH]c3ccc(C)cc23)C1", "note": "(stereo unspecified)", "Potency": "inconclusive: 5.8 µM [inhibitor, full curve]"}, {"smiles": "Cc1ccccc1C(=O)c1ccc2c(c1)n(C)c(=O)n2C", "Potency": "inactive"}, {"smiles": "Cc1csc(NC(=O)CSc2ccc(-c3ccc(F)cc3)nn2)n1", "Potency": "inconclusive: 0.891 µM [inhibitor, single point]"}, {"smiles": "O=C(CN1C(=O)c2cccc3cccc(c23)C1=O)N1CCN(Cc2ccc3c(c2)OCO3)CC1", "Potency": "inactive"}, {"smiles": "Cc1ccc(S(=O)(=O)Oc2ccccc2/C=C2\\SC(=O)NC2=O)cc1", "Potency": "inconclusive: 4.47 µM [activator, full curve, poor fit]"}, {"smiles": "CN(C)CCN(C)Cc1ccccc1Sc1cccc2ccccc12", "Potency": "inconclusive: 18.4 µM [inhibitor, partial curve, poor fit]"}, {"smiles": "COc1ccc(N2CCN(c3nc4c(c(=O)n(C)c(=O)n4C)n3CCCc3ccccc3)CC2)cc1", "Potency": "inconclusive: 0.631 µM [inhibitor, partial curve, poor fit]"}, {"smiles": "COc1ccc(/C=C/C(=O)c2c(C)cc(C)[nH]c2=O)c2ccccc12", "Potency": "inconclusive: 39.8 µM [inhibitor, partial curve, poor fit]"}, {"smiles": "CC1CCC2(CC1)NC(=O)N(NC(=O)C1CCN(C(=O)c3ccc(Cl)cc3)CC1)C2=O", "note": "(stereo unspecified)", "Potency": "inactive"}, {"smiles": "CCc1ccc(NC(=O)CSCCO)cc1", "Potency": "inactive"}, {"smiles": "COC(=O)c1c(NC(=O)c2ccc([N+](=O)[O-])o2)sc2c1CCN(C(C)C)C2", "Potency": "inconclusive: 8.91 µM [inhibitor, partial curve, poor fit]"}, {"smiles": "CCCC(C(=O)NC1CCCC1)N(C(=O)Cn1nnc(-c2ccc(C)o2)n1)C1CCCC1", "note": "(stereo unspecified)", "Potency": "inconclusive: 13 µM [inhibitor, single point]"}, {"smiles": "COc1ccc(-n2c(CNc3ccc(C)cc3)nnc2SCc2ccccc2)cc1", "Potency": "active: 11.2 µM"}, {"smiles": "CNC(=O)COC(=O)CCC(=O)c1ccc(Cl)cc1", "Potency": "inconclusive: 35.5 µM [activator, partial curve, poor fit]"}, {"smiles": "O=C(Nc1cccc(NC(=O)C2CC2)n1)C1CC1", "Potency": "inconclusive: 0.501 µM [inhibitor, partial curve, poor fit]"}, {"smiles": "COc1ccccc1C(=O)NCCC(=O)NC1CCCC(C)C1C", "note": "(stereo unspecified)", "Potency": "inconclusive: 6.31 µM [activator, single point]"}, {"smiles": "O=C(O)c1cccc(NC(=O)c2cn(-c3ccccc3)nc2-c2cc3ccccc3o2)c1", "Potency": "inconclusive: 0.891 µM [activator, full curve, poor fit]"}, {"smiles": "COc1ccccc1/C=C/C=N/n1c(-c2ccc(F)cc2)n[nH]c1=S", "Potency": "inconclusive: 10 µM [inhibitor, partial curve, poor fit]"}, {"smiles": "Cc1ccc(/C=N/NC(=O)c2cccc([N+](=O)[O-])c2)o1", "Potency": "inactive"}, {"smiles": "CCn1ncc(CN2CCCC(C(=O)Nc3cccc(-c4cc5ccccc5[nH]4)c3)C2)c1C", "note": "(stereo unspecified)", "Potency": "active: 12.6 µM"}, {"smiles": "COc1ccc(NC(=O)/C=C/c2ccco2)cn1", "Potency": "inactive"}, {"smiles": "Cc1ccc(-c2csc(N3CCN(S(=O)(=O)c4ccc5c(c4)NC(=O)CO5)CC3)n2)cc1", "Potency": "inconclusive: 5.62 µM [inhibitor, single point]"}, {"smiles": "Cc1cc(-n2c(C)cc(C(=O)CSc3nncn3C)c2C)no1", "Potency": "inactive"}, {"smiles": "Cc1c(C(=O)N(C)C)sc2c1c(=O)n(-c1ccc(Cl)c(Cl)c1)c(=O)n2Cc1ccc(F)cc1", "Potency": "inactive"}, {"smiles": "Cc1ccc(C(=O)Nc2ncc(Cc3ccccc3)s2)o1", "Potency": "inconclusive: 16.4 µM [inhibitor, single point]"}, {"smiles": "O=C(COc1ncnc2scc(-c3ccccc3)c12)NC1CCCc2ccccc21", "note": "(stereo unspecified)", "Potency": "inconclusive: 13 µM [inhibitor, partial curve, poor fit]"}, {"smiles": "Nc1ccc(-c2nnn(Cc3ccccc3F)n2)cc1", "Potency": "inactive"}, {"smiles": "COc1ccc(N(CCCN2C(=O)c3cccc4cccc(c34)C2=O)C(=O)c2cccs2)cc1", "Potency": "inactive"}, {"smiles": "COc1ccc(NC(=O)CN(C)C(=O)c2ccc(NC3CC3)c([N+](=O)[O-])c2)cc1", "Potency": "inconclusive: 10 µM [inhibitor, partial curve, poor fit]"}, {"smiles": "Cc1cc(C(=O)COC(=O)c2ccc(O)cc2)c(C)n1Cc1ccco1", "Potency": "inconclusive: 32.6 µM [inhibitor, single point]"}, {"smiles": "Cn1c(CNc2ccc(Cl)cc2)nc2ccccc21", "Potency": "inconclusive: 3.55 µM [activator, partial curve, poor fit]"}, {"smiles": "N#Cc1ccccc1COc1cccc2c1CCCC2O", "note": "(stereo unspecified)", "Potency": "inconclusive: 4.47 µM [activator, full curve, poor fit]"}, {"smiles": "CCN(CC)CCN(Cc1cc2ccc(C)c(C)c2[nH]c1=O)C(=S)NCc1ccco1", "Potency": "active: 5.62 µM"}, {"smiles": "CC(NCC(c1ccco1)N1CCCCC1)C(=O)NC1CCCC1", "note": "(stereo unspecified)", "Potency": "inconclusive: 28.2 µM [activator, partial curve, poor fit]"}, {"smiles": "CN(C)CCN1CCN(C2CN(Cc3ccccc3)S(=O)(=O)C2)CC1", "note": "(stereo unspecified)", "Potency": "inconclusive: 0.0044 µM [activator, full curve, poor fit]"}, {"smiles": "CCCc1[nH]n(-c2nc3ccccc3s2)c(=O)c1C=NCC1CCCO1", "note": "(stereo unspecified)", "Potency": "inconclusive: 6.51 µM [activator, partial curve, poor fit]"}, {"smiles": "CC1(C)CC(n2cnc(-c3ccc(F)cc3)c2-c2ccnc(N)n2)CC(C)(C)N1", "Potency": "inconclusive: 0.0199 µM [activator, full curve, poor fit]"}, {"smiles": "COc1ccc(CN2CCN(C(=O)c3cccnc3)CC2)cc1Br", "Potency": "inconclusive: 0.82 µM [inhibitor, partial curve, poor fit]"}, {"smiles": "Cc1cc(C)n(-c2ccc(C(=O)OC(C)C(=O)Nc3ccc(C(N)=O)cc3)cc2)n1", "note": "(stereo unspecified)", "Potency": "inactive"}, {"smiles": "COc1ccc(OC)c(-c2c(=O)n(OCc3ccccc3Br)c3ccccc3[n+]2[O-])c1", "Potency": "inconclusive: 35.5 µM [inhibitor, single point]"}, {"smiles": "COc1ccc(S(=O)(=O)N2CC3CCCN3c3ccc(C(F)(F)F)cc32)cc1", "note": "(stereo unspecified)", "Potency": "inconclusive: 29.1 µM [inhibitor, single point]"}, {"smiles": "Cc1ccnc(N(C(=O)Nc2ccccc2)C2=NCC(C)(C)S2)c1", "Potency": "inconclusive: 35.5 µM [inhibitor, single point]"}, {"smiles": "CCOC(=O)c1sc(N)c(C#N)c1CSc1nc2ccc(OCC)cc2[nH]1", "Potency": "inconclusive: 2.91 µM [activator, full curve, poor fit]"}]}]}
